One experiment addresses T1, HA-TECPR2 WT (UniProt O15040).
T1 sequence: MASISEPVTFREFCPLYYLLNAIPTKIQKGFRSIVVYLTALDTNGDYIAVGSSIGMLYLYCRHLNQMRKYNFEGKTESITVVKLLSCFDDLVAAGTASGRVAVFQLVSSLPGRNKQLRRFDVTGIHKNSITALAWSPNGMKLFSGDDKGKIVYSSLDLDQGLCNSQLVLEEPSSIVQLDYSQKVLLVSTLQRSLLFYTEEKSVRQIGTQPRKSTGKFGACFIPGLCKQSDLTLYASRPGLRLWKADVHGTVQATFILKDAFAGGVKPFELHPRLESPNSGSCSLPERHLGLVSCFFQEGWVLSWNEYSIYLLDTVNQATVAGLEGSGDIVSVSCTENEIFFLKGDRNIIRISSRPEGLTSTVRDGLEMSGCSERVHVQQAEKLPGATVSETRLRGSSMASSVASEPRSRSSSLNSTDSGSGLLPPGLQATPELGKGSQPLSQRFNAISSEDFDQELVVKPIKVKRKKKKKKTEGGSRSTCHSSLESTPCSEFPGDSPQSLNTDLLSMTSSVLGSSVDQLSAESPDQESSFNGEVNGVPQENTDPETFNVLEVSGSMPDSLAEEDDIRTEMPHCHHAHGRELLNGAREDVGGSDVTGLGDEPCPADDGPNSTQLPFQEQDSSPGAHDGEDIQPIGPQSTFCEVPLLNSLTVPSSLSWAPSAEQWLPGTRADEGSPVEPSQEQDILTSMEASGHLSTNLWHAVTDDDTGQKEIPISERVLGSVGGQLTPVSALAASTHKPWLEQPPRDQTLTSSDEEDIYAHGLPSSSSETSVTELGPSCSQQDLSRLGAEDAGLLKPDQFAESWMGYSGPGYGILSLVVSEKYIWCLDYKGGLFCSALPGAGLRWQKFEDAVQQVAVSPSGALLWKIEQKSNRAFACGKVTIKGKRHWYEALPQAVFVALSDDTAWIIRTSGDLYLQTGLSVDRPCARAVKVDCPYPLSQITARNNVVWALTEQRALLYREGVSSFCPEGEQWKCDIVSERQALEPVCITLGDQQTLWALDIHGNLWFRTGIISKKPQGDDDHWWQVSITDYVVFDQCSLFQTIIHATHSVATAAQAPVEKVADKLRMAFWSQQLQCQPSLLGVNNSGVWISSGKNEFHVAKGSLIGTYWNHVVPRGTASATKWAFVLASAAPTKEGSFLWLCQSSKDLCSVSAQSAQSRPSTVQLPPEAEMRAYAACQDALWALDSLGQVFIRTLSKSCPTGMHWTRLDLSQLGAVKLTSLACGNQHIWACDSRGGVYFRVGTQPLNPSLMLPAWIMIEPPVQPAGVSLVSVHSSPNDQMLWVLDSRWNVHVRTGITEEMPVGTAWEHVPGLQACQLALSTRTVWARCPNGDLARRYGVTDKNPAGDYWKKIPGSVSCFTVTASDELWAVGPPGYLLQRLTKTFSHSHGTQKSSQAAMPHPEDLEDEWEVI
Briefly: co-IP; lysates of empty and HA-TECPR2 WT or L440Rfs expressing TECPR2 MUT 293T cells; MCL-buffer; HA-IP on HA agarose; immunoblotting.

Protein sequences, listed by entry. Tags and fused reporters are not part of them.
UniProt Q15436: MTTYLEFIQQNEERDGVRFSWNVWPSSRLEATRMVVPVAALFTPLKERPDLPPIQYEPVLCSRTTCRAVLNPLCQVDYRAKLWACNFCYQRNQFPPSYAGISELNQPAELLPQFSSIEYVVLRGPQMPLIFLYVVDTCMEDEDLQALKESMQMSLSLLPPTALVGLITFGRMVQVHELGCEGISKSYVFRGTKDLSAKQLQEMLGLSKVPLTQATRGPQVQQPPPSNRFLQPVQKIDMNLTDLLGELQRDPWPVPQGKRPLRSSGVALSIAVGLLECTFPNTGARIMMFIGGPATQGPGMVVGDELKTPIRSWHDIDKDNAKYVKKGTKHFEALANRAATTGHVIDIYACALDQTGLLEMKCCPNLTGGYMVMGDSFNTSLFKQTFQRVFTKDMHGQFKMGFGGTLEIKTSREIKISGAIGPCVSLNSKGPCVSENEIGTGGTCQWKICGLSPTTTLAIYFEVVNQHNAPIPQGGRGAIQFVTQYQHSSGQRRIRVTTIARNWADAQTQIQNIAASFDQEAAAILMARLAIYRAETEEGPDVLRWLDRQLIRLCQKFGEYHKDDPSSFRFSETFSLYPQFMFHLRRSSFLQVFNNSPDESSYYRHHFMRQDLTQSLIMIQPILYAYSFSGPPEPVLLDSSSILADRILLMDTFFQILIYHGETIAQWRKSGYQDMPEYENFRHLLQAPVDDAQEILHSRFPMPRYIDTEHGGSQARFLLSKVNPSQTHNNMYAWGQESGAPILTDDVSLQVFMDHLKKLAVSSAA
UniProt Q9Y296: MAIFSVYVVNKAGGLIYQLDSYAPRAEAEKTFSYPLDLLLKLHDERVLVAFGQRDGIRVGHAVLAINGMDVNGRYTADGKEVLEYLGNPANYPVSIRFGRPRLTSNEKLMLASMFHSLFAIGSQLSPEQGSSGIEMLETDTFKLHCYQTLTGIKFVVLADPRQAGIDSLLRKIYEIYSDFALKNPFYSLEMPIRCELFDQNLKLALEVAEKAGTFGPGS
UniProt P60520: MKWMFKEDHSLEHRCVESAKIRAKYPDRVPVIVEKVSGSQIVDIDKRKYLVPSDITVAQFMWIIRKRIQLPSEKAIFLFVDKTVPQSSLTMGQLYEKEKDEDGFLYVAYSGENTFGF
UniProt Q96Q05: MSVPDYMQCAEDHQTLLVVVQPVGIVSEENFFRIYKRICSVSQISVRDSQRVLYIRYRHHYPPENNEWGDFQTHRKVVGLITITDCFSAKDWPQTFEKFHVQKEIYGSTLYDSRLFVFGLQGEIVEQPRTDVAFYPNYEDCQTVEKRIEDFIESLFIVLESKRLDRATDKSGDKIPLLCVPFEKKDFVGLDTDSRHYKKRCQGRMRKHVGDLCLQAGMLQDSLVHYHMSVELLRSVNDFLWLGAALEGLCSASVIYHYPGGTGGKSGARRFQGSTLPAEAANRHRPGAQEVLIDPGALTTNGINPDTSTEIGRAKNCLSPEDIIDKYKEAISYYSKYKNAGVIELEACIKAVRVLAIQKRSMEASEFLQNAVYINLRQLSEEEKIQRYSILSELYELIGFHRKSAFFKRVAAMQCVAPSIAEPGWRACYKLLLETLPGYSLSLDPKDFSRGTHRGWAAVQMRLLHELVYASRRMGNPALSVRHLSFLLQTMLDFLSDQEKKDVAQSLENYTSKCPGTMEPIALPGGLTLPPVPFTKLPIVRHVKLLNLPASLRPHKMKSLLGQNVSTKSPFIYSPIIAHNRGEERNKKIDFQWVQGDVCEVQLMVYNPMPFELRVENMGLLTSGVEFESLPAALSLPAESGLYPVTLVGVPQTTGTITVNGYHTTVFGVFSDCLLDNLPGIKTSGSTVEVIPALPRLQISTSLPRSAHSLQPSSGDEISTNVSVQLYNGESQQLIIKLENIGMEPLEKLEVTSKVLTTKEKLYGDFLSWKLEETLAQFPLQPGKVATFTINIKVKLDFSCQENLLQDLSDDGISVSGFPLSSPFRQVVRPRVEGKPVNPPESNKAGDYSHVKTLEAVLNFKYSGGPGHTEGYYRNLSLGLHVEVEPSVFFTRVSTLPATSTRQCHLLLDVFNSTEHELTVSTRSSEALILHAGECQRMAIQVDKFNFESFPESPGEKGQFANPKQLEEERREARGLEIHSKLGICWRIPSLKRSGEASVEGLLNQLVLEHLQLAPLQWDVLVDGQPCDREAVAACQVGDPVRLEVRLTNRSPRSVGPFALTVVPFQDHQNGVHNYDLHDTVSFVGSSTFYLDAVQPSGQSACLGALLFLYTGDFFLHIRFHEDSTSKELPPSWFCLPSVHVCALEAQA
UniProt Q9Y2L5: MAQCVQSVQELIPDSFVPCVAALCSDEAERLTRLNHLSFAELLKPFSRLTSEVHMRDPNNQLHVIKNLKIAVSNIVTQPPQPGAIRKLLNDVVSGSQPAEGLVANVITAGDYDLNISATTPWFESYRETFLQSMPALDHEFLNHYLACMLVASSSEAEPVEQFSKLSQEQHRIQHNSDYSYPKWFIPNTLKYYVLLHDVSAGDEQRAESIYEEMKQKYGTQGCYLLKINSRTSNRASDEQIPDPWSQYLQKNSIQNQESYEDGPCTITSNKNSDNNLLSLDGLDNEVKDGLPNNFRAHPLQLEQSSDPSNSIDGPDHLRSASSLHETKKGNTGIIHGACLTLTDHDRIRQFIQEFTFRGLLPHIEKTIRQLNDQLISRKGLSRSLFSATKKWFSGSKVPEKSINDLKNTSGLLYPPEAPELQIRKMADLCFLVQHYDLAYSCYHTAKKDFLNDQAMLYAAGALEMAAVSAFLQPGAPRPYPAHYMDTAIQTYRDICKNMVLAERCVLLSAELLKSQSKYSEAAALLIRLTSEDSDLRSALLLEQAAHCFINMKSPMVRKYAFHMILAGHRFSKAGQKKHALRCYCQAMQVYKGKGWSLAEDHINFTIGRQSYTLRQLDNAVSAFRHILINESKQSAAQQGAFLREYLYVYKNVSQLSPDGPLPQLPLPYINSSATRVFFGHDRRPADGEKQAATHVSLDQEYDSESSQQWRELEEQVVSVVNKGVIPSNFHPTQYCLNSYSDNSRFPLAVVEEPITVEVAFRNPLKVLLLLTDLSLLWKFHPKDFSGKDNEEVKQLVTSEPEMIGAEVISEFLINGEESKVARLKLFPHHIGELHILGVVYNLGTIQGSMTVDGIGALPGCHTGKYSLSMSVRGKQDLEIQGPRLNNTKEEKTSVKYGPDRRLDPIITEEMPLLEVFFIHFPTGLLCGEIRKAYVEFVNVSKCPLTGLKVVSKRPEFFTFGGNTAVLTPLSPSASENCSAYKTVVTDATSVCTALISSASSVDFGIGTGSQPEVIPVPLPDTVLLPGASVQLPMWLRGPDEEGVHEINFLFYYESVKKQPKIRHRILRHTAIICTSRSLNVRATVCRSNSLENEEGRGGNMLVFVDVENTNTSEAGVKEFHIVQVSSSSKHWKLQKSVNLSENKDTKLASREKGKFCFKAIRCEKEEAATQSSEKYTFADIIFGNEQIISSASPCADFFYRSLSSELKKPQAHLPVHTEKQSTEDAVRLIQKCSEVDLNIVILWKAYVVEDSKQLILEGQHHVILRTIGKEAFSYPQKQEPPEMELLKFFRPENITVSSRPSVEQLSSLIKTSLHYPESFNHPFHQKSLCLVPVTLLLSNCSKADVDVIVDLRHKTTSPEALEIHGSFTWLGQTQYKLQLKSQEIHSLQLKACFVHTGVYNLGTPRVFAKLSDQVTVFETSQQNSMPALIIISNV
UniProt O95166: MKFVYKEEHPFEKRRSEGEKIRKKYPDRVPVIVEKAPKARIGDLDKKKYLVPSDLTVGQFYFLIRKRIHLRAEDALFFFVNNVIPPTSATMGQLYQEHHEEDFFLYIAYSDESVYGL
UniProt O95292: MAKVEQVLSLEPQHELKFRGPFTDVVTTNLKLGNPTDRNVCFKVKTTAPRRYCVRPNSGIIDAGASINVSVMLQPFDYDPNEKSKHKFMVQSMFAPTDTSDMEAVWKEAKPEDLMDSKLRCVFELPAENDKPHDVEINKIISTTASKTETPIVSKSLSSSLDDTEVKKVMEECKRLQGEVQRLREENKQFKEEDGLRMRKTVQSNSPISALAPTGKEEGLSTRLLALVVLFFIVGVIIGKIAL
UniProt Q7Z392: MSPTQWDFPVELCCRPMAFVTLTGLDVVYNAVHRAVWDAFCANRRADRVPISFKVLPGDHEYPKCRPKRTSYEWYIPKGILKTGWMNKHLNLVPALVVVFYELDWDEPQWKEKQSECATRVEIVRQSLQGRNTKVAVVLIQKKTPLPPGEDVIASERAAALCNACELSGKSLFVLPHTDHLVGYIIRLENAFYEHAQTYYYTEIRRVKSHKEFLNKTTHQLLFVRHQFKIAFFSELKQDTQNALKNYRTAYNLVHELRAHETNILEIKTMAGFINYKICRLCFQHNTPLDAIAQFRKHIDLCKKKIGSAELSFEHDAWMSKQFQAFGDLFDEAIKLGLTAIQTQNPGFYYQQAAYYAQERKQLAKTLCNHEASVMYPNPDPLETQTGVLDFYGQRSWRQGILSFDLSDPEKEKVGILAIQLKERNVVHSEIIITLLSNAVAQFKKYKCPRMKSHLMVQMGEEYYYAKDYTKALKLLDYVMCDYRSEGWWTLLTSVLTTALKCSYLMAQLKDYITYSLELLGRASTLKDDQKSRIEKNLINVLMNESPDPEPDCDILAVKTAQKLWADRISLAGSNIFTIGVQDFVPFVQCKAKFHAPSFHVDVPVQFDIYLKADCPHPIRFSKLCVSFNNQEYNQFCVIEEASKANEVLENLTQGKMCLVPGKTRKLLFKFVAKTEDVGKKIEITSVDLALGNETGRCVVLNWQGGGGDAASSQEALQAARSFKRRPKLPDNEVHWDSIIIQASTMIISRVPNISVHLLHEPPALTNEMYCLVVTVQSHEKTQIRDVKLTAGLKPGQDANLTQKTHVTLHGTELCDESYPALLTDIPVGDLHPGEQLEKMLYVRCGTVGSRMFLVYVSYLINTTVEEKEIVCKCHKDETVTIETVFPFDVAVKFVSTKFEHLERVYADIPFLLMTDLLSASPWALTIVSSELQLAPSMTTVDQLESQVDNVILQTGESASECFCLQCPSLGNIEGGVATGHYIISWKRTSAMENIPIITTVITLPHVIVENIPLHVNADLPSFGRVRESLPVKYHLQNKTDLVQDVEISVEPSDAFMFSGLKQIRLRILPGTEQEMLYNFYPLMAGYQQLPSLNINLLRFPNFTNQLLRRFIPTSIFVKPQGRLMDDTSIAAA
UniProt P60468: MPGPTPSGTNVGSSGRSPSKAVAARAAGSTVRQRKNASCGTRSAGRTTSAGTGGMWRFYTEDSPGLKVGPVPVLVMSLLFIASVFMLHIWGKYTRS

The target in experiment [1] is T2, endogenous full-length TECPR2 (human (endogenous in 293T)) (UniProt O15040).
T2 sequence: T1 sequence
The experiment in a line: co-IP; endogenous TECPR2 precipitated with anti-TECPR2 antibody and protein-G sepharose from TECPR2 WT and MUT 293T cell lysates (MCL-buffer); immunoblotting.

No constants are given. Whether binding was seen depends on the method and setting. Binding seen in cells or lysates may run through a third protein. Some results given as binding are weak or reduced against the parent protein; the word gives no strength. For part of these data: Where a sequence is shown, tags or fusion partners need not be part of it.

As to SEC23A (from UniProt Q15436 1-765), the binding result (with HA-TECPR2 WT; in experiment [1]) was “binds” throughout.

Regarding TRAPPC4 (from UniProt Q9Y296 1-219), the binding entry (with HA-TECPR2 WT; in experiment [1]) was “binds” throughout.

GABARAPL2 (from UniProt P60520 1-117): the binding entry (with HA-TECPR2 WT; in experiment [1]) was “binds” throughout.

TRAPPC9 (from UniProt Q96Q05 1-1148): the binding result (in the experiment with HA-TECPR2 WT; in experiment [1]) was “binds” throughout.

In the case of TRAPPC8 (from UniProt Q9Y2L5 1-1435), the binding entry (with HA-TECPR2 WT; in experiment [1]) was “binds” each time.

Turning to GABARAP (from UniProt O95166 1-117), the binding result (in the experiment with HA-TECPR2 WT; in experiment [1]) was “binds” in each case.

As for VAPB (from UniProt O95292 1-243), the binding entry (with HA-TECPR2 WT; in experiment [1]) was “binds” in each case.

TRAPPC11 (from UniProt Q7Z392 1-1133): the binding entry (with HA-TECPR2 WT; in experiment [1]) was “binds” in each case.

Consider SEC61B (from UniProt P60468 1-96), for which the binding result (in the experiment with HA-TECPR2 WT; in experiment [1]) was “binds” each time.
